## Small-molecule microarray binding calls

Calls as published in the ROBIN set (doi:10.1002/anie.202211358).

Targets (5′ to 3′):
PreQ1: PreQ1 riboswitch RNA pseudoknot, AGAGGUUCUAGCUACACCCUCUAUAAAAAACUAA. From B. subtilis. Hit rate about 0.7% of about 24,000 compounds.
TPP: TPP riboswitch RNA three-way junction, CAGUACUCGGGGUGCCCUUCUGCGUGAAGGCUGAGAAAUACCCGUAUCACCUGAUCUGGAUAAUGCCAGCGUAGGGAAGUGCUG. Hit rate about 0.7% of about 24,000 compounds.
SAM-II: SAM-II riboswitch RNA pseudoknot, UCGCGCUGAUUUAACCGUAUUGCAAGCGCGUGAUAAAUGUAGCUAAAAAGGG. Hit rate about 1% of about 21,000 compounds.

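The test is a small-molecule microarray: each compound is printed twice on a reactive slide, and binding shows as fluorescence of the labelled oligonucleotide after washing. The data file lists only calls. An earlier report of the laboratory on the PreQ1, TPP and SAM-II riboswitches (doi:10.1038/s41467-019-09493-3) used 1 µM RNA for 2 h and required a mean Z-score above 3 (spot signal-to-noise against the whole library), a score well above that on a control array, and duplicate spots agreeing (coefficient of variation under 100); it then also set aside compounds that hit other targets, which this list keeps. The cut-offs behind this list may differ. A missing hit is not proof of no binding, and a hit is not a measured affinity.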
“1” means called a hit, “0” means screened and not called a hit.
The compounds are a random part of those screened.
A target missing from an entry has no call listed here.

{"smiles": "CC(=O)N1CCc2cc(C(O)CN3CCN(c4ccc(Cl)cc4)CC3)ccc21", "stereo": "stereo not shown", "PreQ1": "0", "TPP": "0", "SAM-II": "0"}
{"smiles": "O=C(CCn1cc(Cl)cn1)N1CCOCC(O)C1", "stereo": "stereo not shown", "PreQ1": "0", "TPP": "0", "SAM-II": "0"}
{"smiles": "O=C(N1CCOCC1)N1CCC(n2ccnc2-c2cc3n(n2)CCNC3)CC1", "PreQ1": "0", "TPP": "0", "SAM-II": "0"}
{"smiles": "OCC1(CCCc2ccccc2)CCCN(c2nnnn2-c2ccccc2)C1", "stereo": "stereo not shown", "PreQ1": "0", "TPP": "0", "SAM-II": "0"}
{"smiles": "Brc1ccc(-c2nnc3sc(CNC4CCCC4)cn23)cc1", "PreQ1": "0", "TPP": "0", "SAM-II": "0"}
{"smiles": "Nc1cc(=O)[nH]c2ncnn12", "PreQ1": "0", "TPP": "0", "SAM-II": "0"}
{"smiles": "CCC1(C)Cc2ccccc2-c2nc(-c3ccccc3)n(CCO)c(=O)c21", "stereo": "stereo not shown", "PreQ1": "0", "TPP": "0", "SAM-II": "0"}
{"smiles": "O=C1SC(c2ccccc2)=CC1=CNc1nc(-c2ccccc2)cs1", "PreQ1": "0", "TPP": "0", "SAM-II": "0"}
{"smiles": "COc1cc(C)c(CNCCc2c[nH]c3ccccc23)cc1C", "PreQ1": "0", "TPP": "0", "SAM-II": "0"}
{"smiles": "COc1ccc2c(c1)CC(NCCCn1nc(C)nc1C)CC2", "stereo": "stereo not shown", "PreQ1": "0", "TPP": "0", "SAM-II": "0"}
{"smiles": "Cc1ncc2c(c1CNC(=O)c1ccc(SCCO)cc1)CCNC2", "PreQ1": "0", "TPP": "0", "SAM-II": "0"}
{"smiles": "Cc1cc(Nc2cc(C(F)(F)F)ccc2Cl)n2ncnc2n1", "PreQ1": "0", "TPP": "0", "SAM-II": "0"}
{"smiles": "CCc1ccc(CNC(=O)c2nn(-c3ccc(C)c(C)c3)nc2CO)cc1", "PreQ1": "0", "TPP": "0"}
{"smiles": "O=C(/C=C/c1ccc(Cl)s1)c1ccc(Cl)s1", "PreQ1": "0", "TPP": "0", "SAM-II": "0"}
{"smiles": "Cc1ccc2c(c1)c1c(n2CC(O)CN2CCC(C)CC2)CCCC1", "stereo": "stereo not shown", "PreQ1": "0", "TPP": "0", "SAM-II": "0"}
{"smiles": "Cc1cc(Nc2ccc(C)c(Br)c2)n2nc(C)nc2n1", "PreQ1": "0", "TPP": "0", "SAM-II": "0"}
{"smiles": "CCOC(=O)C1=C(c2ccccc2)OC(N)=C(C#N)C12C(=O)Nc1ccccc12", "stereo": "stereo not shown", "PreQ1": "0", "TPP": "0", "SAM-II": "0"}
{"smiles": "COc1cc(-c2cc(-c3ccc(C)s3)nc(N)c2C#N)ccc1O", "PreQ1": "0", "TPP": "0", "SAM-II": "0"}
{"smiles": "OCCNc1nc(NCc2ccc3c(c2)OCO3)nc2ccccc12", "PreQ1": "0", "TPP": "0", "SAM-II": "0"}
{"smiles": "Nc1c(C(=O)c2ccccc2)oc2ccc([N+](=O)[O-])cc12", "PreQ1": "0", "TPP": "0", "SAM-II": "0"}
{"smiles": "COc1ccc(OC)c(Nc2nc(-c3c(C)nc4ccccn34)cs2)c1", "PreQ1": "0", "TPP": "0", "SAM-II": "0"}
{"smiles": "CC(=O)C1=C(C)OC(N)=C(C(=O)OC(C)C)C12C(=O)Nc1ccccc12", "stereo": "stereo not shown", "PreQ1": "0", "TPP": "0", "SAM-II": "0"}
{"smiles": "Cc1ccc(N2CC(n3ccnc3-c3cc4n(n3)CCNC4)CC2=O)cc1", "stereo": "stereo not shown", "PreQ1": "0", "TPP": "0", "SAM-II": "0"}
{"smiles": "O=c1cc(CO)oc(C(Nc2ncccn2)c2ccc(F)cc2)c1O", "stereo": "stereo not shown", "PreQ1": "0", "TPP": "0", "SAM-II": "0"}
{"smiles": "Cc1ccc(-n2nc(CO)c(C(=O)NCCO)n2)cc1C", "PreQ1": "0", "TPP": "0"}
{"smiles": "COc1ccc(Cn2ccc3ccc(C(=O)NO)cc32)cc1", "PreQ1": "0", "TPP": "0", "SAM-II": "0"}

3 of the entries, repeated:

{"smiles": "OCC1(CCCc2ccccc2)CCCN(c2nnnn2-c2ccccc2)C1", "stereo": "stereo not shown", "PreQ1": "0", "TPP": "0", "SAM-II": "0"}
{"smiles": "Cc1ccc(N2CC(n3ccnc3-c3cc4n(n3)CCNC4)CC2=O)cc1", "stereo": "stereo not shown", "PreQ1": "0", "TPP": "0", "SAM-II": "0"}
{"smiles": "CCc1ccc(CNC(=O)c2nn(-c3ccc(C)c(C)c3)nc2CO)cc1", "PreQ1": "0", "TPP": "0"}